Some entries share one result that the patent states for a list of compounds.
Tested on: Ascaridia galli (L3) and Oesophagostumum dentatum (L3 and L4) larvae
Test: In vitro anthelmintic larval test, minimum effective concentration by microscopic examination
Format: cell-based
Conditions: activity against one or both of the nematodes (A. galli L3; O. dentatum L3, L4); 96-well plates, 20 larvae per well, vs DMSO-control
Procedure: C: Biological Examples Efficacy Against Ascaridia galli and Oesophagostomum dentatum
Anthelmintic effects of compounds of this invention (numbers refer to compound numbers in Table I) were tested in vitro using gut-welling larval stages of two parasitic nematode species: Ascaridia galli (intestinal roundworm of chicken), larval stage 3 (“L3”); and Oesophagostumum dentatum (nodular worm of swine), larval stages 3 and 4 (respectively “L3” and “L4”). When conducting these experiments, DMSO-solutions of various concentrations of compounds of this invention were prepared and incubated in 96-well microtiter plates. The parasites were then distributed at 20 larvae per well. The anthelmintic effects were classified by microscopic examination. The microscopic examination included assessing mortality, damage, motility, progression of development, and neutral red uptake by the larvae in comparison to a DMSO-control.

Compound: O=C(c1ccnc(Cl)c1)N1CC2(CCN(CCCc3ccc(Cl)c(Cl)c3)CC2)c2cc(Sc3ccccc3)ccc21 [Compound 115]
- minimum effective concentration (MEC): ≤ 100 µM

Compound: Cc1ccc(Sc2ccc3c(c2)C2(CCN(CCc4ccc(C)cc4C)CC2)CN3C(=O)c2ccnc(Cl)c2)cc1 [Compound 118]
- minimum effective concentration (MEC): ≤ 50 µM

Compound: O=C(c1ccnc(Cl)c1)N1CC2(CCN(CCCc3ccc(Cl)nc3)CC2)c2cc(Sc3ccc(Cl)cc3)ccc21 [Compound 140]
- minimum effective concentration (MEC): ≤ 50 µM

Compound: N#Cc1ccc(Sc2ccc3c(c2)C2(CCN(C/C=C/c4ccc(Cl)cc4Cl)CC2)CN3C(=O)c2ccnc(Cl)c2)cc1 [Compound 85]
- minimum effective concentration (MEC): ≤ 100 µM

Compound: COc1ccc(Sc2ccc3c(c2)C2(CCN(C/C=C/c4ccc(C)cc4C)CC2)CN3C(=O)c2ccnc(Cl)c2)cc1 [Compound 89]
- minimum effective concentration (MEC): ≤ 100 µM

Compound: Cc1ccc(Sc2ccc3c(c2)C2(CCN(CCSc4ccc(Cl)cc4)CC2)CN3C(=O)c2ccnc(Cl)c2)cc1 [Compound 125]
- minimum effective concentration (MEC): ≤ 50 µM

Compound: O=C(c1ccnc(Cl)c1)N1CC2(CCN(CC=Cc3ccc(Cl)cc3)CC2)c2cc(Sc3nccs3)ccc21 [Compound 59]
- minimum effective concentration (MEC): ≤ 50 µM

Compound: COc1ccc(Sc2ccc3c(c2)C2(CCN(CC=Cc4ccc(Cl)c(Cl)c4)CC2)CN3C(=O)c2ccnc(Cl)c2)cc1 [Compound 62]
- minimum effective concentration (MEC): ≤ 100 µM

Compound: Cc1ccc(/C=C/CN2CCC3(CC2)CN(C(=O)c2ccnc(Cl)c2)c2ccc(Sc4nncn4C)cc23)cc1C [Compound 81]
- minimum effective concentration (MEC): ≤ 100 µM

Compound: Cc1ccc(/C=C/CN2CCC3(CC2)CN(C(=O)c2ccnc(Cl)c2)c2ccc(Sc4ccccc4)cc23)cc1C [Compound 75]
- minimum effective concentration (MEC): ≤ 50 µM

Compound: Cc1ccc(/C=C/CN2CCC3(CC2)CN(C(=O)c2ccnc(Cl)c2)c2ccc(Sc4ccc(C)cc4)cc23)cc1 [Compound 107]
- minimum effective concentration (MEC): ≤ 50 µM

Compound: O=C(c1ccnc(Cl)c1)N1CC2(CCN(CC=Cc3cccs3)CC2)c2cc(Sc3ccc(F)cc3)ccc21 [Compound 138]
- minimum effective concentration (MEC): ≤ 100 µM

Compound: COc1ccc(Sc2ccc3c(c2)C2(CCN(C/C=C/c4ccc(C)cc4)CC2)CN3C(=O)c2ccnc(Cl)c2)cc1 [Compound 106]
- minimum effective concentration (MEC): ≤ 50 µM

Compound: O=C(c1ccnc(Cl)c1)N1CC2(CCN(CC=Cc3ccc(Cl)c(Cl)c3)CC2)c2cc(Sc3ccccc3)ccc21 [Compound 61]
- minimum effective concentration (MEC): ≤ 100 µM

Compound: Cc1ccc(/C=C/CN2CCC3(CC2)CN(C(=O)c2ccnc(Cl)c2)c2ccc(Sc4ccc(C#N)cc4)cc23)cc1 [Compound 108]
- minimum effective concentration (MEC): ≤ 100 µM

Compound: O=C(c1ccnc(Cl)c1)N1CC2(CCN(C/C=C/c3ccc(F)c(F)c3)CC2)c2cc(Sc3ccc(Cl)cc3)ccc21 [Compound 98]
- minimum effective concentration (MEC): ≤ 50 µM

Compound: O=C(c1ccnc(Cl)c1)N1CC2(CCN(C/C=C/c3ccc(F)cc3)CC2)c2cc(Sc3ccccc3)ccc21 [Compound 100]
- minimum effective concentration (MEC): ≤ 100 µM

Compound: O=C(c1ccnc(Cl)c1)N1CC2(CCN(CC=Cc3ccccc3)CC2)c2cc(Sc3ccc(Cl)cc3)ccc21 [Compound 53]
- minimum effective concentration (MEC): ≤ 100 µM

Compound: Cc1ccc(/C=C/CN2CCC3(CC2)CN(C(=O)c2ccnc(Cl)c2)c2ccc(Sc4nccs4)cc23)cc1C [Compound 80]
- minimum effective concentration (MEC): ≤ 100 µM

Compound: O=C(c1ccnc(Cl)c1)N1CC2(CCN(CCSc3ccc(Cl)cc3)CC2)c2cc(Sc3ccc(F)cc3)ccc21 [Compound 126]
- minimum effective concentration (MEC): ≤ 50 µM

Compound: Cc1ccc(Sc2ccc3c(c2)C2(CCN(C/C=C/c4ccc(C)cc4C)CC2)CN3C(=O)c2ccnc(Cl)c2)cc1 [Compound 90]
- minimum effective concentration (MEC): ≤ 50 µM

Compound: O=C(c1ccnc(Cl)c1)N1CC2(CCN(CCCCc3ccc(F)cc3)CC2)c2cc(Sc3ccc(F)cc3)ccc21 [Compound 114]
- minimum effective concentration (MEC): ≤ 50 µM

Compound: Cc1ccc(/C=C/CN2CCC3(CC2)CN(C(=O)c2ccnc(Cl)c2)c2ccc(Sc4nccs4)cc23)c(C)c1 [Compound 93]
- minimum effective concentration (MEC): ≤ 50 µM
